Test results: article PMC6523561
No constants are given. Whether binding was seen depends on the method and setting. Binding seen in cells or lysates may run through a third protein. Binding calls can cover weak binding; strength is not graded here. For some assays here: Where a sequence is shown, tags or fusion partners need not be part of it. Blank lines part the entries; values can stand above or below the molecule they belong to.

How the values were obtained:
Flag-tagged DUB3 (human) = target: T1, Flag-tagged DUB3 (human) (UniProt Q6R6M4); assay: co-IP; A549 cells transfected with Flag-DUB3 plasmid or control plasmid; total cell lysates immunoprecipitated with anti-Flag antibodies; probed with anti-Flag or anti-cyclin A antibodies
T1 sequence: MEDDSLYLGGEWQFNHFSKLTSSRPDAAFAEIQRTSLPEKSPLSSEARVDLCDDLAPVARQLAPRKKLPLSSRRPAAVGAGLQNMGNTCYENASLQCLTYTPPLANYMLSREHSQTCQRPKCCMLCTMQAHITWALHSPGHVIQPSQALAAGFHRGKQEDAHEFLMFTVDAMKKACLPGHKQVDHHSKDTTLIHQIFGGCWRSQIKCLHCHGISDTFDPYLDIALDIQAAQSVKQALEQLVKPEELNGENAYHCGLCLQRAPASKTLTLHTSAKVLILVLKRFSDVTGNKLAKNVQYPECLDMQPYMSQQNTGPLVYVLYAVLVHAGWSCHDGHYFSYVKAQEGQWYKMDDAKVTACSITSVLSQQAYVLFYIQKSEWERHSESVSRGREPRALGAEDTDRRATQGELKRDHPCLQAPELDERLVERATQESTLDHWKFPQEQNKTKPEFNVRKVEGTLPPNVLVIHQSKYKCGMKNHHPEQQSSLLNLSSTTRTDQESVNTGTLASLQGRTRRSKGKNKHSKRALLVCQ

[1] = target: cyclin A (human (endogenous in A549)); assay: co-IP; untransfected A549 cell lysates immunoprecipitated with control IgG or anti-cyclin A antibodies; probed with anti-DUB3 or anti-cyclin A antibodies (endogenous proteins)

binding (Flag-tagged DUB3 (human)): binds
Molecule: cyclin A (human (endogenous in A549))

binding [1]: binds
B1: DUB3 (enzyme, UniProt Q6R6M4 1-530)
chain: T1 sequence
